Article PMC4877760
These are yes or no findings as the source states them, for the method shown. In cells and extracts the contact can be indirect. Binding calls can cover weak binding; strength is not graded here.

The chains behind the UniProt entries cited, without tags or fusion partners. Where a name states a change or a piece, a line headed by the entry shows the natural chain unless it says otherwise. A line that says so, or that is headed by a name, gives the form on record, which may keep a tag or linker. Residues count along the entry.
UniProt Q05655: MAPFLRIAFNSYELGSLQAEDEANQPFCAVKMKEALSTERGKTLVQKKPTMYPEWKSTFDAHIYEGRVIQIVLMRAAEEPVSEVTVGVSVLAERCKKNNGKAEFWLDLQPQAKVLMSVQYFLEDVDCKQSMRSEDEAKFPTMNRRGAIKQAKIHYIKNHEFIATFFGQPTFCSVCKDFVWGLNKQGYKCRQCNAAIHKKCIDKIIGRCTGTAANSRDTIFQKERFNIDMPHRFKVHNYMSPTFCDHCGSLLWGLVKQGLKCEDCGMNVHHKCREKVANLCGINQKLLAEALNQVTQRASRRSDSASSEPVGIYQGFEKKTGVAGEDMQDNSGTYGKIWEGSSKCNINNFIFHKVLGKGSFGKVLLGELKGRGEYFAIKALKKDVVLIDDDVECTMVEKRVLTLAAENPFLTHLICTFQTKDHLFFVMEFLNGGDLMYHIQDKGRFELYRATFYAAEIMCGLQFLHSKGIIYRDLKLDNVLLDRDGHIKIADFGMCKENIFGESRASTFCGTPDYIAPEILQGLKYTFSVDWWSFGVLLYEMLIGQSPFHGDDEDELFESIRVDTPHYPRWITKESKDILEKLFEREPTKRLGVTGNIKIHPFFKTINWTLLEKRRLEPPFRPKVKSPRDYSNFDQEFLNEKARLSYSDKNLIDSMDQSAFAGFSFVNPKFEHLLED
EGFP fusion of the C2 domain of PKCδ: residues 1-106 of Q05655
UniProt P05771: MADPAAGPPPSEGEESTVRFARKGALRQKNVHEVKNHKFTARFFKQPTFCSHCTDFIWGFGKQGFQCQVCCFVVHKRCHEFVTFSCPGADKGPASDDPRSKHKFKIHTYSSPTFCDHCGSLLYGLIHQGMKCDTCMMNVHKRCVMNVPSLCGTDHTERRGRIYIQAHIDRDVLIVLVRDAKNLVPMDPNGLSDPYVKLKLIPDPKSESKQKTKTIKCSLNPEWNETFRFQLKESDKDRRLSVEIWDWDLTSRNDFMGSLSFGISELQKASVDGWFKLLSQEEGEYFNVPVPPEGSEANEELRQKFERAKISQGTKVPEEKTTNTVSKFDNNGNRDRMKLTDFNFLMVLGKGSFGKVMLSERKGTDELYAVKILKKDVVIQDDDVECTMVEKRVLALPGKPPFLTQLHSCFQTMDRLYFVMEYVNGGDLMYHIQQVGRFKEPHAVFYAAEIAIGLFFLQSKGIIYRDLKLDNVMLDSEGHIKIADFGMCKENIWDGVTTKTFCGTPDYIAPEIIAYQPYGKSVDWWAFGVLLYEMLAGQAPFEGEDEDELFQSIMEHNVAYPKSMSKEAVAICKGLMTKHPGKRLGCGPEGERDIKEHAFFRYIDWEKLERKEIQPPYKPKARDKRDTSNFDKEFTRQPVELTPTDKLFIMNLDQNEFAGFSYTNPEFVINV
full-length EGFP-tagged PKCβII (P05771, form named): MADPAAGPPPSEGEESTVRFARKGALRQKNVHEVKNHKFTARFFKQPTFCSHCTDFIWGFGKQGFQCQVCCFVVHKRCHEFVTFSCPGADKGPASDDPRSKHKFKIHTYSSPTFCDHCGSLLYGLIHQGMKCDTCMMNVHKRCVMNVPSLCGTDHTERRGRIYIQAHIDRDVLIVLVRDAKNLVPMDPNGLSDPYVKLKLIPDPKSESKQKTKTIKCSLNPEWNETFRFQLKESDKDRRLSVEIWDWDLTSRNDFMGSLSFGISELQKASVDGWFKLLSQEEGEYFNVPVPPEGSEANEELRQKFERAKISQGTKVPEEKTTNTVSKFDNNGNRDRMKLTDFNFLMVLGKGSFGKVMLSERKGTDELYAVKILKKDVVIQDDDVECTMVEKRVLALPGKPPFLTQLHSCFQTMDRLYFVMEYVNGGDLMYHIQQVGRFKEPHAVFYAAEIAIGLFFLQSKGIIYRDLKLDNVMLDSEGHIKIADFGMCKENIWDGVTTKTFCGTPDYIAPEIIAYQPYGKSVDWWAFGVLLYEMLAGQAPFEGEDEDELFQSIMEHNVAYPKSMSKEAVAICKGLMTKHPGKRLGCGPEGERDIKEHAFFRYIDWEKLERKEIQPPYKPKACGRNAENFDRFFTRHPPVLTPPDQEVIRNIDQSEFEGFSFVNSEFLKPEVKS
UniProt Q04759: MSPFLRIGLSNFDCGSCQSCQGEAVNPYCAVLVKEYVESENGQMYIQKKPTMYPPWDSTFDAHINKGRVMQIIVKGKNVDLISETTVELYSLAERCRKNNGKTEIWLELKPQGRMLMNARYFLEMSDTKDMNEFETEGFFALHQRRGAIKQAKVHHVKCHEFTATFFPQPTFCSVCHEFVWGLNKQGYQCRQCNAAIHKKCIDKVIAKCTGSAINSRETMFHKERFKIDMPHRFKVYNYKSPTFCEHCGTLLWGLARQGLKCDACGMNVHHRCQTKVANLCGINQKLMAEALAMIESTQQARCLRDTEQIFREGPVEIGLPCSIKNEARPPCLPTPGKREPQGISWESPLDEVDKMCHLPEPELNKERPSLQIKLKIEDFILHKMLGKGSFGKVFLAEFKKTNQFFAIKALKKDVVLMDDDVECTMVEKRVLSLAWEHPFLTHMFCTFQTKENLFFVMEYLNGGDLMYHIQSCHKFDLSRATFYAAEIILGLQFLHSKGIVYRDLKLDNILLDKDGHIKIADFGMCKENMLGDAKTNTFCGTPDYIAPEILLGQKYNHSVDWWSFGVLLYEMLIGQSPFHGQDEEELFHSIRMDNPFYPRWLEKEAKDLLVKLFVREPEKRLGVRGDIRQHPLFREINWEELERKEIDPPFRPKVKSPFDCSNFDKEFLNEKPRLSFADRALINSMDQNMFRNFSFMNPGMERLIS
UniProt P24723: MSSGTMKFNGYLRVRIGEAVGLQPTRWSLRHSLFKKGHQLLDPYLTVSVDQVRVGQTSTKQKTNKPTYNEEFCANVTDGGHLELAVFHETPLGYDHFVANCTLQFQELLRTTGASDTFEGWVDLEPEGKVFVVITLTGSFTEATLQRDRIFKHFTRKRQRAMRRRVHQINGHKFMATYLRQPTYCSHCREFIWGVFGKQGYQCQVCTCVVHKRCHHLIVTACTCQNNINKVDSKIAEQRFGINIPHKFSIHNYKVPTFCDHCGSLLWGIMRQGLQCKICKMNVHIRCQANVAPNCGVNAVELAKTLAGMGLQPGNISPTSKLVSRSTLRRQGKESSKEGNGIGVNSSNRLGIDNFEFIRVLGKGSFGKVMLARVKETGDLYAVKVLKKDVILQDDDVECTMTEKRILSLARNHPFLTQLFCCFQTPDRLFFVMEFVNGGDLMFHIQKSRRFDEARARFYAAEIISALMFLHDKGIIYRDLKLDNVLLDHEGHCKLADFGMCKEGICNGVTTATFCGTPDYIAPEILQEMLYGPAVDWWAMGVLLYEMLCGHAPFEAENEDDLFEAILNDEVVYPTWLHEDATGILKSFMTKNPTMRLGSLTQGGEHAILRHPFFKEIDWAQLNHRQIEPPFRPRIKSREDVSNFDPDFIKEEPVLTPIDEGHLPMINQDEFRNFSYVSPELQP
UniProt Q02156: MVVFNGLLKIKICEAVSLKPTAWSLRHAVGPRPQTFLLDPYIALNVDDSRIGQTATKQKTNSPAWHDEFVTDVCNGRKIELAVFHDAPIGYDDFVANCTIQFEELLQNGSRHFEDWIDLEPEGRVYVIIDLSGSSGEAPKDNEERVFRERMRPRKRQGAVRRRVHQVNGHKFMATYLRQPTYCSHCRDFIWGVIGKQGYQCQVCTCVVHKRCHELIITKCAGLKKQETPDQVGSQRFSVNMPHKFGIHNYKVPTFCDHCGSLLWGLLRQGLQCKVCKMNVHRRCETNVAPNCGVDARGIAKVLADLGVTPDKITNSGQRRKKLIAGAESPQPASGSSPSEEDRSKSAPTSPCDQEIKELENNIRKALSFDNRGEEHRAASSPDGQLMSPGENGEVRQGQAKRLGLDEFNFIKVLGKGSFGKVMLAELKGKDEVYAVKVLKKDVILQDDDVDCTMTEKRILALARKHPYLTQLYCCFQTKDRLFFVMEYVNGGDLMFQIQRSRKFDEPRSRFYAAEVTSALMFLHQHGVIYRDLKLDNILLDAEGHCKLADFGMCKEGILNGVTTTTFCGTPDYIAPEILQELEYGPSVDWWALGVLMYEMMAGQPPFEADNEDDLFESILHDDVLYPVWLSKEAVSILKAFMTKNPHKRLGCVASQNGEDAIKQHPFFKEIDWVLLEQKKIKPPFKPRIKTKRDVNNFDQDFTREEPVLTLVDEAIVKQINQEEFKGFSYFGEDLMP
UniProt Q9NR28: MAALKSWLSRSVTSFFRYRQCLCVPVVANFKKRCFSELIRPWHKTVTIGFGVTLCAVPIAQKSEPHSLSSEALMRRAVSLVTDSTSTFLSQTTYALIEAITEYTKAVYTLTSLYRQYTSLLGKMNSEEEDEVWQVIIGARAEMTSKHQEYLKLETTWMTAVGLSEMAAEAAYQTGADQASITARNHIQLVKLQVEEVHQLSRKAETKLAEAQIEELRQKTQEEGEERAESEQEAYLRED

What was measured:
[1] = molecular target: endogenous PKCδ (human (endogenous in MCF-7)) (UniProt Q05655); test: co-IP; MCF-7 cells transfected with Smac-HSV; immunoprecipitation of endogenous PKCδ with 1 μg anti-PKCδ antibody and protein G microbeads, Western blot; where indicated cells treated with 16 nM TPA for 16 h
[2] = molecular target: full-length EGFP-tagged PKCβI (UniProt P05771); test: co-IP; COS-7 cells co-transfected with Smac-FLAG and EGFP-tagged PKC constructs; GFP-immunoprecipitation from lysates (μMACS GFP-Tagged Protein Isolation Kit), Western blot; where indicated cells treated with 16 nM TPA with or without 2 μM GF109203X for 16 h
[3] = molecular target: full-length EGFP-tagged PKCβII (UniProt P05771); test: as above
[4] = molecular target: full-length PKCδ Y64D (EGFP fusion) (UniProt Q05655); test: as above
[5] = molecular target: full-length EGFP-tagged PKCθ (UniProt Q04759); test: as above
[6] = molecular target: full-length PKCδ Y313D (EGFP fusion) (UniProt Q05655); test: as above
[7] = molecular target: full-length PKCδ Y155D (EGFP fusion) (UniProt Q05655); test: as above
[8] = molecular target: full-length EGFP-tagged PKCη (UniProt P24723); test: as above
[9] = molecular target: full-length EGFP-tagged PKCε (UniProt Q02156); test: as above
[10] = molecular target: EGFP-tagged full-length PKCδ (UniProt Q05655); test: as above
[11] = molecular target: EGFP fusion of the C2 domain of PKCδ (UniProt Q05655); test: as above

Measured: binding

immature, MTS-containing Smac (from Smac-HSV) (from UniProt Q9NR28)
binds: [1]

full-length Smac-FLAG (from UniProt Q9NR28)
not listed: [1]
binds: all other assays above
